Measured values as given in PubChem BioAssay AID1671190 (National Center for Advancing Translational Sciences (NCATS), 2021).
In all, about 580,000 compounds went through this assay and about 6,100 (1.1%) were called active. Inconclusive means that the source gave no clear call. Such entries were picked first, then a sample of the others. Calls come from the whole dose curve; as a rule, active = well fitted inhibition curve with a large enough effect; inconclusive = small, poorly fitted or top-dose-only effect, or another doubt; inactive = no such curve, though single readings can be large or run the other way. Potencies beside an inconclusive call are fits to weak or partial responses and may not hold up.

The chains behind the UniProt entries cited, without tags or fusion partners. Where a name states a change or a piece, a line headed by the entry shows the natural chain unless it says otherwise.
UniProt P18054: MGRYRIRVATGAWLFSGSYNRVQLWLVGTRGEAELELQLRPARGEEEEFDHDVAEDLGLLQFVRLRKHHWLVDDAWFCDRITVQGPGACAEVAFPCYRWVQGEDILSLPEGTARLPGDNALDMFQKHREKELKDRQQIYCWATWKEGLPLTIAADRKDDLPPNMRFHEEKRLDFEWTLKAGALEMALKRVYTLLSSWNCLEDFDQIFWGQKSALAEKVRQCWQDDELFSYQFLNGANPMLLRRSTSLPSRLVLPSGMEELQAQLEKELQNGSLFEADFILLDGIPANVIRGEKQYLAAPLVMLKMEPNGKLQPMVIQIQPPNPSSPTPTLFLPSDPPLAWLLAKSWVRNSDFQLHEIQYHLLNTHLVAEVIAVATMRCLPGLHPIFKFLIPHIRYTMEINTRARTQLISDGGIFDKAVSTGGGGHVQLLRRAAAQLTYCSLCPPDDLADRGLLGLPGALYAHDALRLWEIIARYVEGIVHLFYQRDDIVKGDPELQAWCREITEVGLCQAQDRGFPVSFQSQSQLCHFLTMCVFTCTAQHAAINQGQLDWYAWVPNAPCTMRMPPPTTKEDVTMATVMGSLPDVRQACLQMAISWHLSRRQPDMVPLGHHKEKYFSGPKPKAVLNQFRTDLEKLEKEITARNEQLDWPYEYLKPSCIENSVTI

What follows are compounds tested against Polyunsaturated fatty acid lipoxygenase ALOX12 (Homo sapiens) (UniProt P18054) (assay: Primary qHTS assay for inhibitors of human arachidonate 12S-lipoxygenase (ALOX12): Round 2). Conditions: purified 12hLO, xylenol orange hydroperoxide absorbance; series mostly up to 108 µM.
Summary of the method: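 Purified human 12hLO at 150 nM in 25 mM Hepes, 0.01% Triton X-100, pH 7.0, preincubated 15 min at room temperature with compound. Reaction started with 40 uM arachidonic acid, 30 min at room temperature. Hydroperoxide measured by Fe-xylenol orange, 573/405 nm absorbance ratio.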
Potency is the fitted concentration of half-maximal effect.

| Compound | Potency |
| --- | --- |
| COc1cc(NC(=O)CSc2nccn2C)cc(OC)c1OC | inconclusive: 56.2 µM [inhibitor, partial curve, poor fit] |
| C[S+](=O)([O-])N1CC2(Cc3ccccc31)CN(C(=O)c1cccc(Cl)c1)C2 | inconclusive: 56.2 µM [inhibitor, partial curve] |
| Cc1noc(C)c1C(=O)OCC(=O)Nc1c(F)cccc1F | inactive |
| CNC(=O)C(=O)Nc1nc(C23CC4CC(CC(C4)C2)C3)cs1 | inactive |
| CC(=O)Nc1ccc(C2OC(=O)N(Cc3cccc(F)c3)C2C(=O)NCC2CCCO2)cc1 (stereo not drawn) | inconclusive: 35.5 µM [inhibitor, partial curve, poor fit] |
| COc1ccc(Cn2c(O)cc(=O)[nH]c2=O)cc1 | inconclusive: 35.5 µM [inhibitor, partial curve, poor fit] |
| CCCCSCCCNC(=O)c1cn(C)c2ccc(S(=O)(=O)N3CCCCCC3)cc2c1=O | inconclusive: 14.1 µM [inhibitor, partial curve, poor fit] |
| O=C(NCC1CCCO1)c1sc(=S)n2c1[nH]c(=O)c1ccc(C(=O)N3CCCCC3)cc12 (stereo not drawn) | inactive |
| CCn1cc(-c2ccccc2)c(C(=O)O)c1-c1ccc(OC)cc1 | inconclusive: 100 µM [inhibitor, partial curve, poor fit] |
| CCC(=O)C1=C(c2ccc(OC)c(OC)c2)N(C(=O)CC)n2c(CC)nnc2S1 | inactive |
| N#Cc1ccccc1NC(=O)c1ccccc1Oc1ccccc1 | inactive |
| Cc1cc(C)n(/N=C/c2cc(Cl)cc(Cl)c2O)c(=O)c1 | inactive |
| Cc1cc(C)n2nc(/C(C#N)=C/c3ccccn3)c(C#N)c2n1 | inconclusive: 56.2 µM [inhibitor, partial curve, poor fit] |
| CCc1cccc(NC(=S)Nc2cccc3ccccc23)c1 | active: 44.7 µM |
| COCCSc1nc2c(c(=O)n(C)c(=O)n2C)n1Cc1cccc(C)c1 | inconclusive: 89.1 µM [inhibitor, partial curve, poor fit] |
| CC(C)C[C@H](NC(=O)Nc1ccc(F)cc1)C(=O)O | inconclusive: 63.1 µM [inhibitor, partial curve, poor fit] |
| CCOc1ccc2nc(SC3CC(=O)N(c4ccc(C)cc4)C3=O)sc2c1 (stereo not drawn) | inactive |
| COCCN1C(=O)c2n[nH]c(-c3ccco3)c2C1c1ccccc1OC (stereo not drawn) | inconclusive: 63.1 µM [inhibitor, partial curve, poor fit] |
| Cc1ccc(S(=O)(=O)N2CCCN(C)c3ccccc32)cc1Cl | inconclusive: 31.6 µM [inhibitor, partial curve] |
| CCC1(C)Cc2nc3sc(C(=O)O)c(N)c3cc2CO1 (stereo not drawn) | inconclusive: 20 µM [inhibitor, partial curve, poor fit] |
| CCCSc1nc2sc3c(c2c(=O)[nH]1)CC(C)(CC)OC3 (stereo not drawn) | inconclusive: 44.7 µM [inhibitor, partial curve, poor fit] |
| c1ccc(CN(CC2=NCCN2)c2ccccc2)cc1 | inactive |

Some values from above:
For Potency, COc1ccc(Cn2c(O)cc(=O)[nH]c2=O)cc1 shows inconclusive: 35.5 µM [inhibitor, partial curve, poor fit]
For Potency, Cc1cc(C)n2nc(/C(C#N)=C/c3ccccn3)c(C#N)c2n1 shows inconclusive: 56.2 µM [inhibitor, partial curve, poor fit]

Further structures:

| Compound | Potency |
| --- | --- |
| CC1=NN(c2ccccc2)C(=O)C1(C)C | inactive |
| O=c1c2ccccc2cnn1Cc1coc(-c2cccc(Cl)c2)n1 | inconclusive: 79.4 µM [inhibitor, single point] |
| O=C(CCN1C(=O)/C(=C/c2ccccc2Cl)SC1=S)Nc1cccnc1 | inconclusive: 28.2 µM [inhibitor, partial curve, poor fit] |
| CCOCCOC(C)C(=O)N(CC(=O)OCC)CC(C)C (stereo not drawn) | inactive |
| COCCN1C(=O)NC(c2cccc(Cl)c2Cl)C(C(=O)Nc2cc(C)on2)=C1C (stereo not drawn) | inconclusive: 35.5 µM [inhibitor, partial curve, poor fit] |
| CCOC(=O)CC1(NC(=O)N2CCCCCC2c2ccc(C)s2)CCCCC1 (stereo not drawn) | inactive |
| N#Cc1c(-n2ncnc2-c2cccc(Br)c2)sc2c1CCCCC2 | inconclusive: 56.2 µM [inhibitor, partial curve, poor fit] |
| COc1ccc(NC(=O)CSc2nnc(NC(=O)c3ccccc3C(=O)O)s2)cc1 | inconclusive: 89.1 µM [inhibitor, partial curve, poor fit] |
| Clc1nc(CN2CCCCC2)nc2sc3c(c12)CCCC3 | inactive |
| CCOc1ccc2nc(COC(=O)c3cccc([N+](=O)[O-])c3)c(C(C)=O)[n+]([O-])c2c1 | inconclusive: 89.1 µM [inhibitor, partial curve, poor fit] |
| Fc1ccc(C2=Nc3cccc4cccc(c34)N2)cc1 | inconclusive: 112 µM [inhibitor, partial curve, poor fit] |
| O=S(=O)(Nc1cc(F)ccc1F)c1ccc2[nH]c3c(c2c1)CCCCC3 | inconclusive: 56.2 µM [inhibitor, partial curve, poor fit] |
| Cc1cc(C)n(CC(O)Cn2c(C)c(C)c3ccccc32)n1 (stereo not drawn) | inconclusive: 17.8 µM [inhibitor, full curve, poor fit] |
| Cc1ccc(-c2cc(C(=O)N3CCN(CC(=O)NC4CC4)CC3)c3ccccc3n2)o1 | inconclusive: 50.1 µM [inhibitor, partial curve, poor fit] |
| COC(=O)c1c(OCc2ccccn2)cc(=O)n2c1CCN(Cc1ccc3c(c1)CCCN3C)CC2 | inconclusive: 141 µM [inhibitor, single point] |
| CCOc1ccc(C(=O)Nc2ccc(NC(=O)c3ccccc3)c(C)c2)cc1[N+](=O)[O-] | inconclusive: 56.2 µM [inhibitor, partial curve, poor fit] |
| C=CCN(C(=O)c1cccc(S(=O)(=O)N2CCN(C)CC2)c1)c1nc(-c2ccccc2)cs1 | inconclusive: 31.6 µM [inhibitor, single point] |
| Cc1ccn2c(NCc3ccc4c(c3)OCO4)c(-c3ccc(O)cc3)nc2c1 | inactive |
| CCn1nc(-c2ccc3c(c2)OCCO3)nc1N(C)C | inactive |
| Cc1occc1-c1nnc(SC(C(=O)N2CCCC2)c2ccccc2)n1-c1ccccc1 (stereo not drawn) | inconclusive: 79.4 µM [inhibitor, single point] |
| O=C(/C=C/c1ccc(OC(F)(F)F)cc1)N1CCCC1 | inactive |
